# Results are given in words; binding and its absence hold for the method and conditions named. Binding can be weak; no strength is given. For some assays here: Tags and fused reporters may be left off the sequences shown. For some assays here: In cells and extracts the contact can be indirect.
# T1: GST-NQO2 (full length wild type NQO2) (human) (UniProt P16083)
# T1 sequence: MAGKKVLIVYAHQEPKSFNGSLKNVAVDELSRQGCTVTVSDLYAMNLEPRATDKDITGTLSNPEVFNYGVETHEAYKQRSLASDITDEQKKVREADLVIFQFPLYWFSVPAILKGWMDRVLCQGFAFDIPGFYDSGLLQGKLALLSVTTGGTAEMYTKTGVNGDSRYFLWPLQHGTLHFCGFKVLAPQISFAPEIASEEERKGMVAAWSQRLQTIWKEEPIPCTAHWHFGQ
# T2: human NQO2 recombinant protein (wild type) (human) (UniProt P16083)
# T2 sequence: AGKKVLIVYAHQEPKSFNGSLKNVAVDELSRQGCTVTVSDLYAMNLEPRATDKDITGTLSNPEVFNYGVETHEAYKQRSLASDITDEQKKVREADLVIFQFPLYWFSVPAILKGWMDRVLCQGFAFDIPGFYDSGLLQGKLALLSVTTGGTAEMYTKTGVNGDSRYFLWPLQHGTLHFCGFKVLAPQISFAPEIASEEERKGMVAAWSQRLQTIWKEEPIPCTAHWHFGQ
# Assays:
# [1] = target: T1, GST-NQO2 (full length wild type NQO2) (human); experiment: pull-down; GST-NQO2 fusion proteins (up to 2.5 ug) with His-tagged AKT proteins (up to 2.5 ug), 50 mM Tris-HCl pH 7.8, 1 mM EDTA, 150 mM NaCl, 1% Nonidet P-40, 4°C, glutathione-Sepharose beads; blots with anti-His, anti-AKT or anti-NQO2; GST-NQO2 pre-incubated with or without 1 mM resveratrol; both purified
# [2] = target: T2, human NQO2 recombinant protein (wild type) (human); experiment: co-IP; recombinant NQO2 and AKT mixed (constant 2.5 ug of one, 0, 1.0 and 2.5 ug of the other), antibody overnight at 4°C in 50 mM Tris-HCl pH 8.0, 100 mM KCl, 0.1% NP-40, 2 mM EDTA; protein A/G-Sepharose; Western blot; reciprocal (anti-NQO2 or anti-AKT); both purified
# [3] = target: human AKT recombinant protein (human); experiment: as above
binding [1],Molecule,also measured
binds,His-AKT-PH (AKT containing the PH domain) (human) (domain or fragment),
binds weakly,His-AKT-dPH (AKT with deletion of PH domain) (human) (domain or fragment),
binds,full length His-tag AKT (human) (enzyme),
,human AKT recombinant protein (enzyme),binding [2]: binds
,"human NQO2 recombinant protein (wild type) (enzyme, UniProt P16083 2-231) AGKKVLIVYAHQEPKSFNGSLKNVAVDELSRQGCTVTVSDLYAMNLEPRATDKDITGTLSNPEVFNYGVETHEAYKQRSLASDITDEQKKVREADLVIFQFPLYWFSVPAILKGWMDRVLCQGFAFDIPGFYDSGLLQGKLALLSVTTGGTAEMYTKTGVNGDSRYFLWPLQHGTLHFCGFKVLAPQISFAPEIASEEERKGMVAAWSQRLQTIWKEEPIPCTAHWHFGQ",binding [3]: binds

# From paper PMC4072751
